Data taken from PubChem BioAssay AID1347075 (National Center for Advancing Translational Sciences (NCATS), 2019).
The campaign covered roughly 400,000 compounds. About 5,500 (1.4%) were called active. Inconclusive means that the source gave no clear call. Such entries were picked first, then a sample of the others. The call rests on the fitted dose curve; in most records, active means well fitted cell-killing curve with a large enough effect; inconclusive means small, poorly fitted or top-dose-only effect, or effect the other way; inactive means flat fitted curve, though single readings scatter. A potency beside an inconclusive call is a rough fit, not a confirmed value.

Assay: qHTS assay for MDR1-selective chemotherapeutics: Primary screen using the parental adenocarcinoma cell KB-3-1; further: nearly all actives have a fitted effect of over 60% in size
Conditions: KB-3-1 viability, CellTiter-Glo ATP luminescence, 72 h; activity change, negative = cytotoxic: at 46.1 µM (top of the series)
Procedure, shortened: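 72 h, 37 °C compound treatment of KB-3-1 parental cells; CellTiter-Glo added, 10 min, luminescence read. Data corrected against DMSO-only plates and normalized before curve fitting.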
On the % scale 0 is the no-effect control and ±100 the full control effect; potency means the concentration at half of the fitted maximal effect.

Compound	Potency	activity change, negative = cytotoxic
COC(=O)c1[nH]c2ccccc2c1NC(=O)CN1CCCc2ccccc21	inconclusive: 29.1 µM [cytotoxic, single point]	
COCCN1Cc2cccc(C(=O)Nc3ccc(Cl)cc3Cl)c2C1=O		inactive: -8.81%
COC(=O)c1ccc(CNC(=O)COC(=O)c2ccc(N(C)C)cc2)cc1	inconclusive: 18.4 µM [cytotoxic, single point]	
COc1ccc(NC(=O)COC(=O)Cc2cccs2)cc1Cl		inactive: 6.64%
CCn1c(-c2ccc(Cl)cc2)n[nH]c1=S	inconclusive: 7.31 µM [cytotoxic, partial curve, poor fit]	
O=C(N/N=C/c1c[nH]c2ccccc12)c1cc(-c2ccc(-c3ccccc3)cc2)n[nH]1	inconclusive: 29.1 µM [cytotoxic, single point]	
O=C(NCc1cccc(Cl)c1)C1Cc2c(-c3ccccc3)ccnc2O1 (centres undefined)	inconclusive: 29.1 µM [cytotoxic, single point]	
O=C(NCC1CCCO1)c1ccccc1-c1nc(-c2ccccc2Cl)no1 (centres undefined)		inconclusive: -8.85%
O=C(C1CCCO1)N1CCN(C(=S)Nc2ccc(Cl)cc2Cl)CC1 (centres undefined)	inconclusive: 20.6 µM [cytotoxic, single point]	
CN(C)c1ccc(-c2ccnc3c2CC(C)(C(=O)NCCC(F)(F)F)O3)cc1 (centres undefined)	inconclusive: 23.1 µM [cytotoxic, single point]	
Cc1cc(O)c(/C=N/OCc2ccc(Cl)cc2Cl)c(=O)o1	inconclusive: 11.6 µM [cytotoxic, partial curve, poor fit]	
CC(C)c1ccc(NC(=O)N2CCc3nc(NCc4cccc(Oc5ccccc5)c4)ncc3C2)cc1	inconclusive: 18.4 µM [cytotoxic, partial curve, poor fit]	
Cc1cc(N2CCOCC2)nc2ccc(NC(=O)CCC(=O)N3CCN(c4cccc(C(F)(F)F)c4)CC3)cc12	inconclusive: 18.4 µM [cytotoxic, single point]	
CC1(C)CC(=O)C=C(/C=C/c2ccccc2)C1		inactive: 0.82%
Cc1cc(Cl)ccc1NS(=O)(=O)c1ccc2c(c1)CC(C)N2C(=O)C1CCC1 (centres undefined)	inconclusive: 25.9 µM [cytotoxic, single point]	
CCOC(=O)c1cc(NC(=O)Nc2cc(C)ccn2)c(C)nc1C	inconclusive: 4.11 µM [rising, partial curve]	
Cc1nnc2c3ccccc3c(-c3cccs3)nn12	inconclusive: 29.1 µM [cytotoxic, single point]	
CCCCCCCn1c(NC(=O)CC)nc2ccccc21	inconclusive: 25.9 µM [cytotoxic, partial curve, poor fit]	
CC12CC3CC(C)(C1)CC(NCc1ccncc1)(C3)C2		inactive: 4.5%
COc1cc2c3nnc(-c4ccc(F)cc4)c-3cn(Cc3cccc(C)c3)c2cc1OC	inconclusive: 29.1 µM [cytotoxic, single point]	
O=C(Cn1nc(C(=O)O)c2ccccc2c1=O)Nc1cc(S(=O)(=O)N2CCOCC2)ccc1Cl	inconclusive: 29.1 µM [rising, single point]	
O=C(Nc1cc(Cl)cc(Cl)c1)c1ccc(Cn2c(=O)[nH]c3ccsc3c2=O)cc1	active: 16.4 µM	
COc1ccc(OC)c(NC(=O)Nc2nc(CN(C)C)cs2)c1		inactive: 0%

Compound	Potency	activity change, negative = cytotoxic
COc1ccc(-c2csc(NC(=O)CSCC(=O)Nc3cc(C)on3)n2)cc1OC		inactive: 11.5%
N#Cc1ccccc1S(=O)(=O)N1CCN(c2nc(-c3ccccc3)nc3ccccc23)CC1	inconclusive: 18.4 µM [rising, single point]	
Cn1cnnc1Sc1ccc(/C=C/C(=O)c2ccc(O)cc2)cc1[N+](=O)[O-]	inconclusive: 29.1 µM [cytotoxic, single point]	
COc1ccc(N(C(=O)c2snc(C(N)=O)c2N)C(C(=O)NCc2ccc(F)cc2)c2ccc(O)cc2)cc1 (centres undefined)		inconclusive: -3.19%
CCOc1cccc(C(=O)Nc2ccc3oc(Cc4ccc(Cl)cc4)nc3c2)c1	inconclusive: 29.1 µM [cytotoxic, single point]	
CCCCCCSc1ccc(-c2nc3ccc(C)cn3c2NCCCC)cc1OC	inconclusive: 29.1 µM [cytotoxic, single point]	
CCCCCCCCNC(=O)c1cnccn1		inactive: 14.3%
COc1cc(Nc2c3c(nc4ccccc24)CCC3)cc(OC)c1OC	active: 2.31 µM	
c1ccc(-c2nnc(-c3ccccn3)s2)nc1	inconclusive: 13 µM [cytotoxic, partial curve, poor fit]	
O=C(C1CC1)N1c2ccccc2Sc2ccccc21	active: 20.6 µM	
CCOC(=O)Nc1ccc2c(c1)N(C(=O)CCN(CC)CC)c1ccccc1S2=O (centres undefined)	inconclusive: 29.1 µM [cytotoxic, single point]	
CCc1nn2c(=O)cc(COc3ccc(/C=C(\C#N)C(=O)Nc4ccc(C)cc4)cc3)nc2s1		inactive: 0.948%
Nc1ccn(C2OC(COP(=O)(O)O)C(O)C2O)c(=O)n1 (centres undefined)	inconclusive: 2.31 µM [cytotoxic, full curve]	
COc1ccc(NS(=O)(=O)c2ccc(N3CCCCC3)c(N)c2)cc1	active: 20.6 µM	
O=C(NN1C(=O)/C(=C/c2cccs2)SC1=S)c1ccncc1		inactive: -4.59%
CC(NC(=O)CN1CCN(c2ccccc2F)CC1)c1ccccc1 (centres undefined)		inactive: 16%
Cc1cc(F)ccc1C(O)c1ncc(-c2ccccc2C(F)(F)F)[nH]1 (centres undefined)		inactive: -28.6%
CC1CCCC(NCC(O)COC(c2ccc(F)cc2)c2ccc(F)cc2)C1C (centres undefined)	inconclusive: 29.1 µM [cytotoxic, single point]	
Nc1c(C(=O)c2ccccc2)sc2snc(SCC(=O)c3ccccc3)c12	inconclusive: 23.1 µM [cytotoxic, single point]	
COc1ccc(NS(=O)(=O)c2cc3c(cc2C)N(C(C)=O)CCO3)c(OC)c1		inactive: 6.05%
Cc1ccccc1CNC(=O)C(=O)NCC(c1cccs1)S(=O)(=O)c1ccc(Cl)cc1 (centres undefined)	inconclusive: 29.1 µM [cytotoxic, single point]	
COc1ccc(-c2nc(NC(=O)C3CCN(c4nc5ccccc5o4)CC3)sc2C)cc1	active: 25.9 µM	
COc1ccc(C(=O)NC(=S)Nc2ccc3[nH]c(=O)[nH]c3c2)c(OC)c1		inactive: 1.43%

Compound	Potency	activity change, negative = cytotoxic
COC(=O)c1ccc2nc(C3CCCCC3)c(Cc3ccccc3)n2c1	inconclusive: 29.1 µM [cytotoxic, single point]	
CC(=O)c1c(C)[nH]c(C(=O)Nc2cccc(S(=O)(=O)N3CCCC3)c2)c1C	inconclusive: 5.8 µM [cytotoxic, partial curve, poor fit]	
Cc1ccc(C(=O)N/C(=C/C=C/c2ccccc2)C(=O)NCc2ccco2)cc1	inconclusive: 25.9 µM [cytotoxic, single point]	
CCCOc1ccc(NC(=O)C2CC(=O)N/C(=N/N=C(C)/C=C/c3ccc(N(C)C)cc3)S2)cc1 (centres undefined)	inconclusive: 29.1 µM [cytotoxic, single point]	
COc1ccc(N2C(N)=NC(N)=NC2(C)C)cc1	inconclusive: 25.9 µM [cytotoxic, single point]	
Cc1ccc(N=C(N(C)C)P(=O)(N(C)C)N(C)C)c(C)c1	inconclusive: 13 µM [rising, partial curve, poor fit]	
COc1ccccc1CCC(=O)O		inactive: 1.96%
C=C(C)c1cccc(C(C)(C)NC(=O)Nc2cc(C)ccn2)c1	inconclusive: 29.1 µM [cytotoxic, single point]	
O=C1C2C3c4ccccc4C(Br)(c4ccccc43)C2C(=O)N1c1ccccc1O (centres undefined)		inactive: 4.08%
CC1CCCN(C2=C(NS(=O)(=O)c3ccc(Br)cc3)C(=O)c3ccccc3C2=O)C1 (centres undefined)	inconclusive: 20.6 µM [cytotoxic, partial curve]	
CCC(C)n1c(=S)[nH]c2c(sc3ccc([N+](=O)[O-])cc32)c1=O (centres undefined)	inconclusive: 23.1 µM [cytotoxic, single point]	
O=C(c1cccc([N+](=O)[O-])c1)N1CCCC(C(=O)N2CCc3ccccc3C2)C1 (centres undefined)		inactive: 1.35%
COc1ccc(Cl)cc1N1C(=O)[C@@H]2C(c3cccc(OC)c3OC)=NO[C@@H]2C1=O		inconclusive: 1.67%
C=CCn1c(-c2ccccc2)c[nH]c1=S	inconclusive: 29.1 µM [cytotoxic, single point]	
Nc1c(-c2cccc(Cl)c2)cnn1-c1cccc(C(F)(F)F)c1	inconclusive: 16.4 µM [cytotoxic, single point]	
Cc1nc(SCc2ccc(Cl)cc2)c(C#N)c(C)c1Cl	inconclusive: 18.4 µM [cytotoxic, single point]	
CCOC(=O)C1CCCN(C/C(O)=C(\C#N)c2nc(-c3ccc(Cl)cc3)cs2)C1 (centres undefined)		inactive: -12.8%
O=C(Oc1ccc(-c2cnc3ccccc3n2)cc1)c1ccco1	inconclusive: 25.9 µM [cytotoxic, partial curve, poor fit]	
O=[N+]([O-])c1ccc(-c2nc(Cl)c3c(n2)CCCC3)o1	inconclusive: 20.6 µM [cytotoxic, partial curve, poor fit]	
Clc1ccc2[nH]cc(-c3nnnn3-c3ccccc3)c2c1	active: 18.4 µM	
CC(C)Cn1cc(C(=O)N2CCN(c3cccc(Cl)c3)CC2)c2c3ccccc3n(C)c2c1=O	inconclusive: 32.6 µM [cytotoxic, single point]	
O=[N+]([O-])c1cnc2nc(-c3ccncc3)nn2c1O	inconclusive: 13 µM [cytotoxic, partial curve, poor fit]	
COc1ccc(-n2c(NN)nc3sc4c(c3c2=O)CCCC4)cc1	inconclusive: 18.4 µM [cytotoxic, single point]	
